Measured values as given in PMC7242363.
Results are given in words; binding and its absence hold for the method and conditions named. Binding seen in cells or lysates may run through a third protein. Some binding calls cover weakened binding; strength is not graded here.

Amino acid sequences for entries named in this document (tags omitted).
UniProt P29067: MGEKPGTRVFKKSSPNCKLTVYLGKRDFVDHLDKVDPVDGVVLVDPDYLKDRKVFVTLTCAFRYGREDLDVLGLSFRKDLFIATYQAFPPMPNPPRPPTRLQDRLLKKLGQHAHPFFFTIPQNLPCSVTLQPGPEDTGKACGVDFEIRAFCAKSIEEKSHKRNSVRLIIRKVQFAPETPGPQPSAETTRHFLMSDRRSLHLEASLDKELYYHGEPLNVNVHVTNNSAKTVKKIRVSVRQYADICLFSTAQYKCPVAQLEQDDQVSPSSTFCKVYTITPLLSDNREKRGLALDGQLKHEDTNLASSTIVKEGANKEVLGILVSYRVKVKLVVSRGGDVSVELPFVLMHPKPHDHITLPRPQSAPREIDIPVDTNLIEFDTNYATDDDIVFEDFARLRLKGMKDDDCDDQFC

Molecular target: T1, type III TGF-β1 receptor (not stated (endogenous in HSCs: rat HSC-T6 or human LX-2)) (UniProt P26342)
T1 sequence: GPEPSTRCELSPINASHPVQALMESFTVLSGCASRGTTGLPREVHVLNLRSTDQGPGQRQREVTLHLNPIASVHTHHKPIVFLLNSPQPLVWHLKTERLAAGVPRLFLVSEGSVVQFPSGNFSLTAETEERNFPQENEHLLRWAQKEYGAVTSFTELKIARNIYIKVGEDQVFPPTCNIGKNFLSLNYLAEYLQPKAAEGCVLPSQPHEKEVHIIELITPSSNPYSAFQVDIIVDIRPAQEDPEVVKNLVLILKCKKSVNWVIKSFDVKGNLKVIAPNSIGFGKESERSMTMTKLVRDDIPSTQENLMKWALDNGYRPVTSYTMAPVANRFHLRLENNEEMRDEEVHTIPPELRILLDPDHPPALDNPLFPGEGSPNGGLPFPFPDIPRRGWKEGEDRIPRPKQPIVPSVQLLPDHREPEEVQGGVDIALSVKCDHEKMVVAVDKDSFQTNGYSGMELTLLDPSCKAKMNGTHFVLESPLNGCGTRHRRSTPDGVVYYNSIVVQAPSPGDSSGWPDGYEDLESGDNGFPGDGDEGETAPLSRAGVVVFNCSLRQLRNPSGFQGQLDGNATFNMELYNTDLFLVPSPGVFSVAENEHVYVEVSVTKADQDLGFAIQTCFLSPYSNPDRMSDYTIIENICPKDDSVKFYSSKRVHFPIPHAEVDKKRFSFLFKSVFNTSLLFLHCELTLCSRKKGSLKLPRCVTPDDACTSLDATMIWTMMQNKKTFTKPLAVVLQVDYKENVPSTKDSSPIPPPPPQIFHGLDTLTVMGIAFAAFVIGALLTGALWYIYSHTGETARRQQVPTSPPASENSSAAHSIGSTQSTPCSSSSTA
Test: co-IP; HSC lysate in RIPA lysis buffer with protease inhibitors; IP with anti-TβRIII antibody, Western blot with anti-β-arrestin2 antibody; cells with or without TGF-β1 treatment, and with β-arrestin2 siRNA

binding: binds
Substance: β-arrestin2 (from UniProt P29067 1-410)
